PubChem BioAssay AID595 (National Center for Advancing Translational Sciences (NCATS), 2007)
Where “and” joins values, the source holds several entries; their conditions need not be identical. Equal entries are not always repeated. Among all 71,000 compounds or so, about 310 (0.44%) were called active. Inconclusive results, whose numbers are uncertain, are shown with a selection of clear calls. Calls come from the whole dose curve; as a rule, active = well fitted curve in either direction with a large enough effect; inconclusive = small, poorly fitted or top-dose-only effect, or another doubt; inactive = flat fitted curve, though single readings scatter. Where the call is inconclusive, the potency comes from a doubtful curve fit.

Test system: Hsp90 C-terminal peptide / TPR2A (Hop) interaction, human
Assay: qHTS Assay for Disrupters of an Hsp90 Co-Chaperone Interaction
Conditions: AlphaScreen TPR2A-His6 binding biotin-Hsp90 C-terminal peptide; activity change, negative = inhibition: at 57 µM (top of the series) unless noted
Excerpt: NIH Chemical Genomics Center [NCGC]
NIH Molecular Libraries Screening Centers Network [MLSCN]
Hsp90 (heat shock protein 90) is the essential molecular chaperone and it accounts for 1-2% of all cytosolic proteins and is critical for the activity of diverse cellular proteins that are involved in a variety of cellular processes, including development, cell cycle, and steroid hormone signaling. Its client proteins include signaling kinases such as IGF1R, Akt, v-Src, Raf-1; regulators of cell survival such as Bcr-Abl; and transcription factors such as mutated p53, estrogen and progesterone receptors. Hsp90 has emerged as an important target for cancer treatment due to its essential role in maintaining transformation and regulating the function of oncogenic signaling proteins.
The in vivo function of Hsp90 is regulated by the binding and hydrolysis of ATP at its N-terminal. Geldanamycin binds to ATP site and inhibit Hsp90 function. Geldanamycin and its analogues are under clinical trials in cancer patients.
This domain contains the binding site for tetratricopeptide repeat (TPR) domains on HOP (Hsp Organizing Protein). TPR is a structural motif used by a significant number of cochaperones by which the in vivo function of Hsp90 is regulated. TPR2A on HOP binds specifically to MEEVD motif of the C-terminal of Hsp90.
A homogeneous AlphaScreen is developed to assess the interaction between TPR2A and MEEVD motif of the C-terminal of Hsp90 by using the isolated TPR2A domain and a synthesized 20mer Hsp90 C terminal peptide. AlphaScreen is two bead-based proximity-dependent chemical energy transfer luminescent assay platform. TPR2A-His-6 and biotinylated Hsp90 C terminal peptide will bring streptavidin donor beads and nickel chelate acceptor beads to a proximity range (less than 200 nm), and subsequently lead a chemical luminescent reaction upon exciting donor beads with 680 nm laser. Inhibition of TPR2A and MEEVD motif interaction by small molecules could attenuate or abolish this chemical luminescent reaction.
Counter screening: Biotinylated-His-6 (PerkinElmer) can be utilized as a counter screen, as it serves as a linker to bring streptavidin beads and nickel chelate beads together. The counter screen can exclude alpha screen platform false positives due to small molecules being metal chelators, biotin analogues and imidazole analogues, or due to interfering with oxygen release from donor beads. Such an assay should be utilized to qualify any activity observed in this screen.
NCGC Assay Protocol Summary:
The assay was performed on 1536-well white plate (untreated solid bottom). Liquids were dispensed by 1536-well plate washer (Kalypsys, San Diego, CA). Plates were read on EnVision (PerkinElmer, Boston, MA).TPR2A-His6 was produced using a bacteria expression system and purified using a well developed method (Ghosh et al., 2000). Hsp90 C terminal 20-mer peptide with or without an N-terminal biotin group are synthesized using automated solid phase synthesis by the Yale Keck facility. The composition of assay buffer was (in mM) 25 HEPES, 100 KCl, 2 MgCl2 and 2 DTT; 0.1% BSA and 0.01% Tween-20. TPR2A-His6 binding to biotin-Hsp90 will bring streptavidin donor beads and nickel chelate acceptor beads (PerkinElmer) together and can be measured by Alpha reading by EnVision (PerkinElmer). Free Hsp90 blocks biotin-Hsp90 binding to TPR2 and serves as a positive control in the current asssay.
The assay was performed at room temperature. All compounds were screened as titrations from […] to 46 uM final concentration. The assay was performed in 1536-well format plates (untreated white solid bottom, Corning Inc.) as follows:
Sequence,Parameter,Value,Description
1,Reagent,3 uL TPR2A-His6,Final concentration was 5nM
2,Compound,23 nL,Final titration was from 0.7 nM to 46 uM
3,Time,15 minutes,Room temperature
4,Reagent,1 uL biotin-Hsp90,With and without free Hsp90. Final concentration was 10 nM for biotin-Hsp90 and 10uM for free Hsp90.
5,Time,1 hour,Room temperature
[…]
% is set by controls: 0 for no effect and ±100 for the full control effect; potency is the fitted concentration of half-maximal effect.

Row | Compound | activity change, negative = inhibition | Potency
1 | Cc1cccc(N2CCN(Cc3c(C)n(C)n(-c4ccccc4)c3=O)CC2)c1C | inconclusive: 47.8% [at 11 µM] | 
2 | CCC[C@@H]1C[C@@]1(CCC)C(NC(=O)c1cccs1)c1ccc(Cl)cc1 (some centres not stated) | inconclusive: 139% | 
3 | Cc1ccc2cccc(S(=O)(=O)n3nc(C)cc3C)c2n1 | inconclusive: 39.1% | 
4 | CCN1CCN(S(=O)(=O)c2cc(OCC(=O)NC3CCCCC3)c(C)cc2Cl)CC1 | inconclusive: 35.1% | 
5 | Cn1cccc1Cc1nnc(SCC(=O)N2CCCc3ccccc32)n1-c1ccc(F)cc1 | inactive: -3.77% [at 2.3 µM] | 
6 | CN(Cc1ccccc1)Cn1ccnc1 | inactive: -4.81% [at 11 µM] | 
7 | COC(=O)Cn1cnc2sc(C)c(S(=O)(=O)N3CCN(c4ccccc4OC)CC3)c2c1=O | inconclusive: 40.5% | 
8 | CCn1ncc(Cl)c1C(=O)Nc1cc(Cl)ccc1Cl |  | inconclusive: 31.6 µM [activator, single point]
9 | COc1cc(NC(=O)Nc2ccccc2)c(OC)cc1NC(=O)CN1CCCCC1 | inconclusive: -39.2% | 
10 | CCOCCCNC(=O)C(c1ccc(C)cc1)N(Cc1ccc2c(c1)OCO2)C(=O)c1cnccn1 (configuration not stated) | inconclusive: 49.8% | 
11 | Oc1c(C(c2ccccc2)N2CCCCC2)sc2ncnn12 (configuration not stated) | inconclusive: 43.8% | 
12 | Cc1[nH]nc(-c2ccc(O)c(C)c2O)c1-c1cnn(-c2ccccc2)c1 | inconclusive: 2.31% | 
13 | CCCNC(=O)NC(=O)CN1C(=O)NC(C)(c2ccc(C)cc2)C1=O (configuration not stated) | inconclusive: 52.9% | 
14 | CCc1ccc(-c2cn(-c3nc(C)cc(C)n3)c(=N)o2)cc1 | inactive: -8.8% | 
15 | CCOC(=O)c1cnc(SC)nc1Nc1cccc(F)c1 |  | inconclusive: 25.1 µM [activator, partial curve]
16 | Brc1ccc(-c2cnc(-c3cccs3)o2)cc1 |  | inconclusive: 39.8 µM [activator, single point]
17 | Cc1cc(N2CCN(C3CCCC3)CC2)n2nc(C)c(-c3ccccc3)c2n1 | inconclusive: 44.1% | 
18 | Cc1ccc(-c2csc3nnc(SCC(=O)N4CCN(Cc5ccccc5)CC4)n23)cc1 | inactive: -22% | 
19 | O=C(C1CC1c1ccccc1)N1CCN(c2cccc(Cl)c2)CC1 (configuration not stated) | inactive: 3.55% | 
20 | O=C(O)c1ccc(Cl)c2c1C1C=CCC1C(c1ccccn1)N2 (configuration not stated) |  | inconclusive: 31.6 µM [inhibitor, single point]
21 | COc1ccc(CNc2nc(SCC(=O)NCc3ccco3)nc3ccccc23)cc1 | inconclusive: 35.2% | 

Row | Compound | activity change, negative = inhibition | Potency
22 | O=C(Nc1nc(-c2ccccn2)cs1)c1ccc(Cl)s1 |  | active: 7.94 µM
23 | CCOC(=O)c1cnc(SCc2ccccc2)nc1N | inactive: 12.1% | 
24 | O=C(Cn1c(-c2ccc(Cl)cc2)noc1=O)N1CCN(c2ccccc2F)CC1 | inconclusive: 52.9% | 
25 | c1ccc2c(c1)OCC(c1csc3ncnc(N4CCOCC4)c13)O2 (configuration not stated) | inconclusive: 52% [at 11 µM] | 
26 | CCOC(=O)c1oc2ccccc2c1NC(=O)c1cccc(OC)c1OC |  | inconclusive: 20 µM [activator, single point]
27 | Cc1ccc(C(=O)n2cnnc2N)cc1C | inconclusive: -26.9% | 
28 | Cc1cc(C)nc(-n2nc(C)cc2NC(=O)CN2CCCC(C)C2)n1 (configuration not stated) | inactive: -6.61% | 
29 | Cc1cc(NC(=O)c2c(-c3ccccc3Cl)noc2C)no1 | inactive: -3.74% | 
30 | COc1ccccc1C(=O)N(Cc1cccs1)C1CCS(=O)(=O)C1 (configuration not stated) | inconclusive: 42% | 
31 | CCCC(=O)Nc1ccc(C(=O)N2CCCC2)cc1 | inconclusive: 42.6% | 
32 | CCOc1ccccc1C(=O)NC1CC2CCCC(C1)N2Cc1nnnn1Cc1ccco1 (configuration not stated) | inconclusive: 47% | 
33 | O=C(c1ccco1)N1CCN(C(=O)c2cc(-c3ccncc3)nc3ccc(Br)cc23)CC1 | inactive: -6.33% | 
34 | CC(NC(=O)c1ccccc1O)c1ccccc1 (configuration not stated) | inconclusive: 71.8% [at 11 µM] | 
35 | C/C=C(/C)C#N | inconclusive: 47.1% | 
36 | COC(=O)C(CCCCN1C(=O)C2C3C=CC(C3)C2C1=O)N1C(=O)C2C3C=CC(C3)C2C1=O (configuration not stated) | inconclusive: 52.5% | 
37 | O=C(CN(CCCN1CCOCC1)C(=O)Cn1nnc(-c2ccc(F)cc2)n1)NC1CCCCC1 | inactive: -2.61% | 
38 | CC1CCCC(N2C(=O)NC(NC(=O)c3ccco3)(C(F)(F)F)C2=O)C1C (configuration not stated) | inconclusive: 34% | 
39 | Nn1c(-c2ccccn2)nnc1-c1ccccn1 |  | inconclusive: 10 µM [inhibitor, partial curve]
40 | CC(=O)Nc1ccc(NC(C)=O)s1 | inactive: -0.516% | 
41 | O=C(Nc1ccccc1)N1CCCC2(CCN(C(=O)c3cc(C(F)(F)F)cc(C(F)(F)F)c3)CC2)C1 | inactive: -1% | 
42 | CN(C)c1ccc(/C=C2/C(=O)Nc3ccccc32)cc1 |  | inconclusive: 12.6 µM [inhibitor, partial curve] and inconclusive: 31.6 µM [inhibitor, partial curve]

Structural class: the entries above containing bromine
Row | Compound | activity change, negative = inhibition | Potency
16 | Brc1ccc(-c2cnc(-c3cccs3)o2)cc1 |  | inconclusive: 39.8 µM [activator, single point]
33 | O=C(c1ccco1)N1CCN(C(=O)c2cc(-c3ccncc3)nc3ccc(Br)cc23)CC1 | inactive: -6.33% | 
